The values below come from article PMC5752836.

Amino acid sequences for entries named in this document (tags omitted).
UniProt P60879: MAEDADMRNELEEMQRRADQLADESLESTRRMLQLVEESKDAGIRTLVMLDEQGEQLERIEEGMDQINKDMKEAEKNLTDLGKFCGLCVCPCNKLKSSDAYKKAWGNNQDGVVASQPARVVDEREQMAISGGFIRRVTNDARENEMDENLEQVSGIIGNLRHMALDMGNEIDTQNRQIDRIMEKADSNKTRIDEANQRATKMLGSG
UniProt Q62277: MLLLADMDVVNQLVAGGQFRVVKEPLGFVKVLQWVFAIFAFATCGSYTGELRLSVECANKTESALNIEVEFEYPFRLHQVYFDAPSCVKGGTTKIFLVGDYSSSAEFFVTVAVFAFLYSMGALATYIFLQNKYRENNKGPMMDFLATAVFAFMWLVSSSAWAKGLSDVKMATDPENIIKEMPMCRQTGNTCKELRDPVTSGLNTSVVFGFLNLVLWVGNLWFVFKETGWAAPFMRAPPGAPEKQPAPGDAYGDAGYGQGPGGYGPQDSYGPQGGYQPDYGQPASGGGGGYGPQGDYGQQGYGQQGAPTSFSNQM

These are yes or no findings as the source states them, for the method shown. In cells and extracts the contact can be indirect. Some results given as binding are weak or reduced against the parent protein; the word gives no strength.

The target in this assay is T1, proline-rich transmembrane protein 2 (PRRT2) (mouse (endogenous in mouse brain)) (UniProt E9PUL5).
T1 sequence: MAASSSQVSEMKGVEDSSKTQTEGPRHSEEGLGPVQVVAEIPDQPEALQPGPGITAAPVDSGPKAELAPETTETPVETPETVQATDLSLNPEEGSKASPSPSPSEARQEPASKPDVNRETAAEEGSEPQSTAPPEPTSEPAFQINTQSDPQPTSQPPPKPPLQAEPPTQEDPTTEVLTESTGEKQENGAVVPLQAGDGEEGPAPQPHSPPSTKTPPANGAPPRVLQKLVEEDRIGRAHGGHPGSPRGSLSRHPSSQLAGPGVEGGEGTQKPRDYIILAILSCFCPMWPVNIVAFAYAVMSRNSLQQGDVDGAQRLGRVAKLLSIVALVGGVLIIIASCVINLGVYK
Nature of the assay: co-IP; mouse brain lysates in ELB buffer (100 mM Tris, 10 mM EDTA, 300 mM NaCl, 0.2% NP-40, pH 7.5), anti-PRRT2 antibodies overnight at 4 °C, Protein G-Agarose, immunoblotting; controls: Prrt2Stop lysate, WT lysate pre-incubated with the epitope peptide. (In general: Immunoblotting shows a protein as a band on a membrane.)

With SNAP-25 (from UniProt P60879 1-206), the binding entry is listed as “binds”.

SYP (from UniProt Q62277 1-314): the binding entry is recorded as “no binding”.
